Reference: the supplement of paper PMC7666118
Some of the results follow.

By UniProt entry, the sequences of proteins in these tests, tags left out. Where a name states a change or a piece, a line headed by the entry shows the natural chain unless it says otherwise.
UniProt Q86UV5: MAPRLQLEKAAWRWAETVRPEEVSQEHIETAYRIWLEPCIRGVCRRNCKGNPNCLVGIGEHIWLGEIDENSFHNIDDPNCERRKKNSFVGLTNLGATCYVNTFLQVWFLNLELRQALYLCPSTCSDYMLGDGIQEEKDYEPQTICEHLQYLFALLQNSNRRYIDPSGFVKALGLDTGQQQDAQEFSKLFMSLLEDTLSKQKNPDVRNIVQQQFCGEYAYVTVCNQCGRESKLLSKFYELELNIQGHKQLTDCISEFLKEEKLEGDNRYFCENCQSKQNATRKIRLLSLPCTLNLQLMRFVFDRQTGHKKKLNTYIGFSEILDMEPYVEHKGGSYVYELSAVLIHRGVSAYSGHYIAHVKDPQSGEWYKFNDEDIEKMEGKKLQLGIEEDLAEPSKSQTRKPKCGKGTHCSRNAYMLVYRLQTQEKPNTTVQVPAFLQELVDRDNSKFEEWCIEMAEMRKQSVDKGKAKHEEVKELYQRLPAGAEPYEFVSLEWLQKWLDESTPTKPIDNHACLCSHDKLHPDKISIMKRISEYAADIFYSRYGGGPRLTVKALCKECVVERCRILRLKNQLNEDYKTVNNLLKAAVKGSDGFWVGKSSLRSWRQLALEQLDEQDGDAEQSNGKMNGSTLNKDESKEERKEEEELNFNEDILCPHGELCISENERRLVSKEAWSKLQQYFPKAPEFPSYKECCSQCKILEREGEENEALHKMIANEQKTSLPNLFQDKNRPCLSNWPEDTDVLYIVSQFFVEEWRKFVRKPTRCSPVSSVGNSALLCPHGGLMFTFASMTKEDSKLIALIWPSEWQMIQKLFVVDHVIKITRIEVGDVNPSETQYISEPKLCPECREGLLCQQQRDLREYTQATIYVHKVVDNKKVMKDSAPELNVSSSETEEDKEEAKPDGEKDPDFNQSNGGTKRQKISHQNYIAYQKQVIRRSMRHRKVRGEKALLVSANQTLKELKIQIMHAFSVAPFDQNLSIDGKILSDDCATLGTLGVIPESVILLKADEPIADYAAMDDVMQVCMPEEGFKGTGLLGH
UniProt Q9BTM9: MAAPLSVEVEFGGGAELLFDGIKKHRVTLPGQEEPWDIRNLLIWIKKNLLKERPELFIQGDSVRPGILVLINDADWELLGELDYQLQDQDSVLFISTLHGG
UniProt Q9H9J4: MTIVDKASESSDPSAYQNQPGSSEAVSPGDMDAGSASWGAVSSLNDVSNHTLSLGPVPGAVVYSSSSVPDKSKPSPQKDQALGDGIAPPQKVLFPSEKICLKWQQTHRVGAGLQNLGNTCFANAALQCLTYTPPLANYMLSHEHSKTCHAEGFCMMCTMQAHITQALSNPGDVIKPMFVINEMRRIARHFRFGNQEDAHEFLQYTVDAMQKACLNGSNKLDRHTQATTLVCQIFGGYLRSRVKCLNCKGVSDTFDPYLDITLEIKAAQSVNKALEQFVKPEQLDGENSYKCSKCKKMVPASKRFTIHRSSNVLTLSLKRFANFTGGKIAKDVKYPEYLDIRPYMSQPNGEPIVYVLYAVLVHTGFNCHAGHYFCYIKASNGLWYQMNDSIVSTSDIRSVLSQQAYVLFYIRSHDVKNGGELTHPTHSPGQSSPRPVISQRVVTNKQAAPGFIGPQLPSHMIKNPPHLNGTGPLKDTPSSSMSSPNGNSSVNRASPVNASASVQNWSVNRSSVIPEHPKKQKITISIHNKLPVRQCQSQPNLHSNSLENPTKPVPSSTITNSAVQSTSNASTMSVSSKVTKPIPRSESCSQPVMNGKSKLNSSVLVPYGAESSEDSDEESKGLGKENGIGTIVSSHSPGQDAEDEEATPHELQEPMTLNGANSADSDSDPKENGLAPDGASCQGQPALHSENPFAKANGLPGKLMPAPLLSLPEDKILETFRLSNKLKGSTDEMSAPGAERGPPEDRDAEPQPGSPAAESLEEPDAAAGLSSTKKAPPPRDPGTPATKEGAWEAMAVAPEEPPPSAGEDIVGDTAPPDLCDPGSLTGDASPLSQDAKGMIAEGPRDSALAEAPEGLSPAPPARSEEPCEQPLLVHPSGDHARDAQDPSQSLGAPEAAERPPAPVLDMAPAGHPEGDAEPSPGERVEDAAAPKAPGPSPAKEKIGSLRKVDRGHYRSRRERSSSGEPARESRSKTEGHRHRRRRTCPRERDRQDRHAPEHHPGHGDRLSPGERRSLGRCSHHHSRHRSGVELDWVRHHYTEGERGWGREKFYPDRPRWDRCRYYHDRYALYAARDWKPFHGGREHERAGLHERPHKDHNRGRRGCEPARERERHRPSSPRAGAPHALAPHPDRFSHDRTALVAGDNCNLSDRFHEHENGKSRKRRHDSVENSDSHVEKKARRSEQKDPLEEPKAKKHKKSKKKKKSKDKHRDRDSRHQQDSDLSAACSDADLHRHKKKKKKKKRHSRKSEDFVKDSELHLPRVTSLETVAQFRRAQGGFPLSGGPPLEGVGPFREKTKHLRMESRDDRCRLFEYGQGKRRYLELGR
UniProt Q9NRR5, whole entry: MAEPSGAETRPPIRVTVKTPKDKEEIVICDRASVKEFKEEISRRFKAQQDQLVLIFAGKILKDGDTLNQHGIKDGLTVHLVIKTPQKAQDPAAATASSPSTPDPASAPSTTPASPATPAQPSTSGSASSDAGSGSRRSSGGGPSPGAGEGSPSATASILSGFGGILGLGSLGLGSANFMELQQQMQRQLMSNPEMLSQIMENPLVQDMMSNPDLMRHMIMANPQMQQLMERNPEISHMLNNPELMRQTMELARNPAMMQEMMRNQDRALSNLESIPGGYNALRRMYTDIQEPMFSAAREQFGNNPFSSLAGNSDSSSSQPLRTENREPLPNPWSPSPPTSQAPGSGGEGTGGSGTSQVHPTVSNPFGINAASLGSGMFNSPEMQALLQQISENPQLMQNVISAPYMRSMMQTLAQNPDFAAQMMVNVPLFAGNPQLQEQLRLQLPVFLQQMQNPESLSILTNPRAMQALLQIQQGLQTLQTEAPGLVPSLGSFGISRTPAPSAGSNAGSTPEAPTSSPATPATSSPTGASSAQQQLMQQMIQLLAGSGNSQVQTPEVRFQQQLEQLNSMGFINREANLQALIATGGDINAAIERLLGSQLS
UniProt Q9NQ86: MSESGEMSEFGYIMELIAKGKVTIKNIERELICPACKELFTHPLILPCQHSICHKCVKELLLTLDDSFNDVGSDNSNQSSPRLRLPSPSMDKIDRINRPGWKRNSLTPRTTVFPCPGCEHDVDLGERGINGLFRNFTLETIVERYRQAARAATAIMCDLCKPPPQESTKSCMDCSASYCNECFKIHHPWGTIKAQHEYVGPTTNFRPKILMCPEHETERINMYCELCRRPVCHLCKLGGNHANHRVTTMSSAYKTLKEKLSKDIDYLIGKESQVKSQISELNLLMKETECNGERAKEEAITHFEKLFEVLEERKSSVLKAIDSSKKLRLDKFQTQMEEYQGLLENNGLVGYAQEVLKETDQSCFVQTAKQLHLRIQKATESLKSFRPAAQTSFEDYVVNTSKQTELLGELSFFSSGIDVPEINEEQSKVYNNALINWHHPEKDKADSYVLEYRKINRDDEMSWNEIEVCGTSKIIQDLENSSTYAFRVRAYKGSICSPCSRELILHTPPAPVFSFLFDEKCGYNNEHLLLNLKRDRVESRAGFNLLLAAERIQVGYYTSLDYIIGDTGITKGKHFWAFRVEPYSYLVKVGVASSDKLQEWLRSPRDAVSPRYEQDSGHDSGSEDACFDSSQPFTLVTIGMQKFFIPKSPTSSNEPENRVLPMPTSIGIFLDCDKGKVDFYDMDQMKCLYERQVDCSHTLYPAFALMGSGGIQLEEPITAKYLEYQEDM
UniProt Q14669: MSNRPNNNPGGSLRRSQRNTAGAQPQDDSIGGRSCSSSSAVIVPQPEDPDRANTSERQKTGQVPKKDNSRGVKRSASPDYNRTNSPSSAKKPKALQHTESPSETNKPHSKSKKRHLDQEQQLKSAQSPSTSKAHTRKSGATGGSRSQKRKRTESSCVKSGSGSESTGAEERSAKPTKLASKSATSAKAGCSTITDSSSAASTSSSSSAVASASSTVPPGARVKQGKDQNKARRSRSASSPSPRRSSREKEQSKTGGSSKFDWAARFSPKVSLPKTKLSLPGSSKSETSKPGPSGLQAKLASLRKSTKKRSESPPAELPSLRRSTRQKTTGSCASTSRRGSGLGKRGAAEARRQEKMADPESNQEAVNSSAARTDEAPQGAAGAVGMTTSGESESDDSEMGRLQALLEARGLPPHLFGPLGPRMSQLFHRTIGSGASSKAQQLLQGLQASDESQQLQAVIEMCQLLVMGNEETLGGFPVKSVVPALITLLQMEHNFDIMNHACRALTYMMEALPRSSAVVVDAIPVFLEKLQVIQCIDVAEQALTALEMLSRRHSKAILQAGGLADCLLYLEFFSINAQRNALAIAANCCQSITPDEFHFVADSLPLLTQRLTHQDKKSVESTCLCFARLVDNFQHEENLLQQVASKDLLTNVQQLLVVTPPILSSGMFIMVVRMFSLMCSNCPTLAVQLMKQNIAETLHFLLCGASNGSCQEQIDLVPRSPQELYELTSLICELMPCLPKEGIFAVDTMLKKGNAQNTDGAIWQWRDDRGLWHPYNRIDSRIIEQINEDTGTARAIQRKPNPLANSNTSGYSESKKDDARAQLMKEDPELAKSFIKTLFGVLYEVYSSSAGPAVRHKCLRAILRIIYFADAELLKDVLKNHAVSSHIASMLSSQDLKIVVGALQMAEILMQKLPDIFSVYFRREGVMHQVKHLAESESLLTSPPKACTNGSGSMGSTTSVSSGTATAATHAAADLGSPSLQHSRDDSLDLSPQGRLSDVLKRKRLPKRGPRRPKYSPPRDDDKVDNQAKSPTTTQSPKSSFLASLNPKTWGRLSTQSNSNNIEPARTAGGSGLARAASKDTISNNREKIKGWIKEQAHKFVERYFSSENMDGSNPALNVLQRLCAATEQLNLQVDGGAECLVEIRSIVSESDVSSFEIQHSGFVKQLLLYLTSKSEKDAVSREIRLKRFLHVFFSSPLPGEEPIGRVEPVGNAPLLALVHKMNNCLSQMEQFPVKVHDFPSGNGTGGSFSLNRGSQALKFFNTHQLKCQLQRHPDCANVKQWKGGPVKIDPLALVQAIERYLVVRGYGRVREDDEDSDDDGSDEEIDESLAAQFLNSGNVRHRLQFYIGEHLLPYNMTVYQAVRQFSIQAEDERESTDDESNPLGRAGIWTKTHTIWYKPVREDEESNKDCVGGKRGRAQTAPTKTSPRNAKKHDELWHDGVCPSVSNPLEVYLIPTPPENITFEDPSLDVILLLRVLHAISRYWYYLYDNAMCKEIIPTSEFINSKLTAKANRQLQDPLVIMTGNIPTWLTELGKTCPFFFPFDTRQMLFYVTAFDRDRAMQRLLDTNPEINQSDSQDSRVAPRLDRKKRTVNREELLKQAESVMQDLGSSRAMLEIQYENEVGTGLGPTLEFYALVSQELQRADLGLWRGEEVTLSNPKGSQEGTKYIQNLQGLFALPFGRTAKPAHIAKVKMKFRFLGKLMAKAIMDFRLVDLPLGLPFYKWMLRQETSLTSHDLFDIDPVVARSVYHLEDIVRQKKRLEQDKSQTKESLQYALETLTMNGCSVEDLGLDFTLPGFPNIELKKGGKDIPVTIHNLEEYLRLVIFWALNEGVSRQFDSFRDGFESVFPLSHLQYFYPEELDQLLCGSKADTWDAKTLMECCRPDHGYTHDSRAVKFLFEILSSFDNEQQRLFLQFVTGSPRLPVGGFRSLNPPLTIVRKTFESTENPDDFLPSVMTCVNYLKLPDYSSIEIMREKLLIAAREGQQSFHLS
UniProt Q9NV66: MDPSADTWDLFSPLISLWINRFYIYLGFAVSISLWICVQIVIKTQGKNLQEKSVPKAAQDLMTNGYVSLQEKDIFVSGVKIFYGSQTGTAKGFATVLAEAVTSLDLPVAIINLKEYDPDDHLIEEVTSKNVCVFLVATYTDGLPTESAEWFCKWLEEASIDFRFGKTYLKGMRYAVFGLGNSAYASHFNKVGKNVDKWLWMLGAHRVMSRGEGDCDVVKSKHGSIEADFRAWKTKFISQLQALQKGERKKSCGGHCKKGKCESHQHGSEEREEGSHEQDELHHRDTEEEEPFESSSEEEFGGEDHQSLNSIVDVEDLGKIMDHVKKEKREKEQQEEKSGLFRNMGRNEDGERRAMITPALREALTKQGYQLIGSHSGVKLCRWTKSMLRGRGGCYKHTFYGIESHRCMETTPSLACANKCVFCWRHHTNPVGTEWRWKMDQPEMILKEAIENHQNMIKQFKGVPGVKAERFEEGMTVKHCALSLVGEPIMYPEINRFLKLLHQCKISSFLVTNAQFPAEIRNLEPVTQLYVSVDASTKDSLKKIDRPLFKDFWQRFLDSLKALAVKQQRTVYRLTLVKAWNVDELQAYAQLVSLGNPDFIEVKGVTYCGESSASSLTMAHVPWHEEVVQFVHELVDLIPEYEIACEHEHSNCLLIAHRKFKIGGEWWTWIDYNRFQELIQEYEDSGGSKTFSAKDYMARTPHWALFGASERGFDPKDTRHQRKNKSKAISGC

compound: COc1ccc(Cn2ccc3ccc(C(=O)NO)cc32)cc1; assay: dose-dependent thermal stabilisation call (2D-TPP, DLPTP, 10% FDR) (binary (1 = stabilised)); higher = stabilised by the compound; conditions: system: HL-60 intact cells; concentration range 0.04-10 µM

Target	dose-dependent thermal stabilisation call
USP48 (UniProt Q86UV5)	inactive: 0
TXN2 (UniProt Q99757)	inactive: 0
USF1 (UniProt P22415)	inactive: 0
TRIM38 (UniProt O00635)	inactive: 0
TTC7A (UniProt Q9ULT0)	inactive: 0
USP14 (UniProt P54578)	inactive: 0
URM1 (UniProt Q9BTM9)	inactive: 0
UBAP1 (UniProt Q9NZ09)	inactive: 0
UEVLD (UniProt Q8IX04)	inactive: 0
UGDH (UniProt O60701)	inactive: 0
USP42 (UniProt Q9H9J4)	inactive: 0
UBQLN4 (UniProt Q9NRR5)	inactive: 0
TYSND1 (UniProt Q2T9J0)	inactive: 0
TRAM1 (UniProt Q15629)	inactive: 0
UBFD1 (UniProt O14562)	inactive: 0
UHRF1BP1L (UniProt A0JNW5)	inactive: 0
USP30 (UniProt Q70CQ3)	inactive: 0
TSC2 (UniProt P49815)	inactive: 0
UBE2M (UniProt P61081)	inactive: 0

Shown with bars between the fields: entries from further up
Target | dose-dependent thermal stabilisation call
TRAM1 (UniProt Q15629) | inactive: 0
UBE2M (UniProt P61081) | inactive: 0

(continued)

Target	dose-dependent thermal stabilisation call
UBE2C (UniProt O00762)	inactive: 0
UBE2R2 (UniProt Q712K3)	inactive: 0
TRIM36 (UniProt Q9NQ86)	inactive: 0
UBASH3B (UniProt Q8TF42)	inactive: 0
TSR1 (UniProt Q2NL82)	inactive: 0
UBA7 (UniProt P41226)	inactive: 0
TRIP12 (UniProt Q14669)	inactive: 0
TRIM13 (UniProt O60858)	inactive: 0
TRIM26 (UniProt Q12899)	inactive: 0
TXNDC9 (UniProt O14530)	inactive: 0
UBE2Q1 (UniProt Q7Z7E8)	inactive: 0
TTRAP (UniProt O95551)	inactive: 0
TSPAN4 (UniProt O14817)	inactive: 0
UBAP2 (UniProt Q5T6F2)	inactive: 0
TYW1 (UniProt Q9NV66)	inactive: 0
TSPAN31 (UniProt Q12999)	inactive: 0
TXLNA (UniProt P40222)	inactive: 0
TXNDC16 (UniProt Q9P2K2)	inactive: 0
